Data source: PubChem BioAssay AID504764 (Drosophila RNAi Screening Center, 2011)
In all, the deposit lists about 22,000 reagents; this is an unselected part of those that have a named target and a result. In the full data, 403 (1.9%) got an active call. 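Unnormalised raw counts per well; ratio z-scores behind the hit calls and whether each hit raises or lowers signal are not deposited.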 No sequences are given here. Not stated in the record: the amount of reagent.

Screen: 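Knock-downs that raise or lower a Notch target reporter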 (primary screen)
System: Drosophila Kc167 cells
Reagent: long dsRNA against Drosophila genes
Time to read-out: about 5 days (4 days dsRNA, then 24 h after transfection)
Challenge: transfection of constitutively active membrane-tethered Notch lacking the extracellular domain, read 24 h later
Detection: 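Firefly luciferase from an E(spl)m3 reporter with active Notch, plus control-promoter and uninduced reporter wells for normalisation; unnormalised counts, duplicate wells a and b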
Direction: induced reporter light, run 1, well a and induced reporter light, run 1, well b: higher = more light from the Notch target reporter with active Notch; control promoter light, run 1, well a and control promoter light, run 1, well b: higher = more light from the viral control promoter (cell number, transfection, viability); uninduced reporter light, run 1, well a: higher = more light from the Notch target reporter without active Notch
Hit rule: 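Hit if the duplicate-averaged log2 ratio of induced to control-promoter light gives a plate-wise z beyond ±2, or induced to uninduced beyond ±1.8; weak-control or discordant-duplicate wells dropped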
Meaning of the calls: active = modifier hit (raised or lowered Notch signal); inactive = not a hit

Against CG33937 (retired record) [DRSC15148] the deposit lists induced reporter light, run 1, well a = 1.19e5; induced reporter light, run 1, well b = 1.15e5; control promoter light, run 1, well a = 97995; control promoter light, run 1, well b = 85805; uninduced reporter light, run 1, well a = 5905; inactive.
Knock-down of CCT5 [DRSC07357] came out at: induced reporter light, run 1, well a = 24650; induced reporter light, run 1, well b = 23715; control promoter light, run 1, well a = 20635; control promoter light, run 1, well b = 22185; uninduced reporter light, run 1, well a = 1925; inactive.
Knock-down of strat [DRSC03069] resulted in: induced reporter light, run 1, well a = 1.53e5; induced reporter light, run 1, well b = 1.89e5; control promoter light, run 1, well a = 1.10e5; control promoter light, run 1, well b = 1.26e5; uninduced reporter light, run 1, well a = 20945; inactive.
Arms [DRSC03856] scored induced reporter light, run 1, well a = 68990; induced reporter light, run 1, well b = 83695; control promoter light, run 1, well a = 91815; control promoter light, run 1, well b = 70520; uninduced reporter light, run 1, well a = 7250; inactive.
Silencing of Arms [DRSC03857] gave: induced reporter light, run 1, well a = 67485; induced reporter light, run 1, well b = 65530; control promoter light, run 1, well a = 66770; control promoter light, run 1, well b = 67125; uninduced reporter light, run 1, well a = 7760; inactive.
Arms [DRSC04052] scored induced reporter light, run 1, well a = 1.79e5; induced reporter light, run 1, well b = 1.61e5; control promoter light, run 1, well a = 1.28e5; control promoter light, run 1, well b = 1.27e5; uninduced reporter light, run 1, well a = 13495; inactive.
Arms [DRSC04256] gave induced reporter light, run 1, well a = 39110; induced reporter light, run 1, well b = 29020; control promoter light, run 1, well a = 15728; control promoter light, run 1, well b = 25075; uninduced reporter light, run 1, well a = 4100; inactive.
Depletion of Pfdn4 [DRSC09761] came out at: induced reporter light, run 1, well a = 2.14e5; induced reporter light, run 1, well b = 2.21e5; control promoter light, run 1, well a = 3.34e5; control promoter light, run 1, well b = 1.82e5; uninduced reporter light, run 1, well a = 14870; inactive.
With knock-down of eIF3g1 [DRSC18427], the record shows induced reporter light, run 1, well a = 8462; induced reporter light, run 1, well b = 9540; control promoter light, run 1, well a = 10380; control promoter light, run 1, well b = 13130; uninduced reporter light, run 1, well a = 650; inactive.
Against Gbp1 [DRSC06592], the values are induced reporter light, run 1, well a = 89195; induced reporter light, run 1, well b = 1.02e5; control promoter light, run 1, well a = 1.12e5; control promoter light, run 1, well b = 85515; uninduced reporter light, run 1, well a = 7085; inactive.
Silencing of Cyp4p3 [DRSC07374] resulted in: induced reporter light, run 1, well a = 2.43e5; induced reporter light, run 1, well b = 1.96e5; control promoter light, run 1, well a = 3.09e5; control promoter light, run 1, well b = 2.35e5; uninduced reporter light, run 1, well a = 17628; inactive.
Silencing of CG32845 [DRSC07867] resulted in: induced reporter light, run 1, well a = 1.63e5; induced reporter light, run 1, well b = 1.85e5; control promoter light, run 1, well a = 2.22e5; control promoter light, run 1, well b = 1.73e5; uninduced reporter light, run 1, well a = 13525; inactive.
Spt20 [DRSC10280] showed induced reporter light, run 1, well a = 7380; induced reporter light, run 1, well b = 5945; control promoter light, run 1, well a = 9042; control promoter light, run 1, well b = 6870; uninduced reporter light, run 1, well a = 2210; inactive.
dgrn [DRSC12154] scored induced reporter light, run 1, well a = 1.50e5; induced reporter light, run 1, well b = 1.42e5; control promoter light, run 1, well a = 1.61e5; control promoter light, run 1, well b = 1.62e5; uninduced reporter light, run 1, well a = 12300; inactive.
Pka-C3 [DRSC09402] scored induced reporter light, run 1, well a = 1.86e5; induced reporter light, run 1, well b = 2.10e5; control promoter light, run 1, well a = 2.83e5; control promoter light, run 1, well b = 2.32e5; uninduced reporter light, run 1, well a = 19330; inactive.
Pka-C3 [DRSC11254] gave induced reporter light, run 1, well a = 2.50e5; induced reporter light, run 1, well b = 2.11e5; control promoter light, run 1, well a = 2.56e5; control promoter light, run 1, well b = 2.36e5; uninduced reporter light, run 1, well a = 11175; inactive.
Lpt [DRSC04291] scored induced reporter light, run 1, well a = 1.78e5; induced reporter light, run 1, well b = 1.68e5; control promoter light, run 1, well a = 1.64e5; control promoter light, run 1, well b = 1.51e5; uninduced reporter light, run 1, well a = 10560; inactive.
Silencing of Lpt [DRSC04515] resulted in: induced reporter light, run 1, well a = 2.00e5; induced reporter light, run 1, well b = 2.47e5; control promoter light, run 1, well a = 1.69e5; control promoter light, run 1, well b = 1.71e5; uninduced reporter light, run 1, well a = 13015; active.

Reagents listed above called active:
Lpt [DRSC04515] | induced reporter light, run 1, well a: 2.00e5; induced reporter light, run 1, well b: 2.47e5; control promoter light, run 1, well a: 1.69e5; control promoter light, run 1, well b: 1.71e5; uninduced reporter light, run 1, well a: 13015; outcome: active
